Several values for one entry are separate records, joined by “and”; a condition that tells them apart may be missing. Equal entries are not always repeated. The list shows a part of the results.

The assay can be described thus: hypoxia reporter signal reduction in M. tuberculosis – fluorescence, absorbance growth readout, primary screen (AID 1159583). Particulars: M. tuberculosis hypoxia-regulated fluorescent reporter, measured here: M. tuberculosis growth (absorbance), stronger effect = higher value, concentration not given here.
On to `CN(C(=O)Cc1ccc(Cl)c(Cl)c1)C1CCCCC1N1CCCC1` (centres undefined), for which the growth inhibition was -1.08% and 4.01% and 3.08%. Consider `CN(C)C(=O)c1c([N+](=O)[O-])cc([N+](=O)[O-])cc1[N+](=O)[O-]`, for which the growth inhibition was 5.47%. Under `CC1CCN(C(=O)Oc2c(Cl)cc(Cl)c3cccnc23)CC1` stands 11.1%; under `C[N+]1=C2C=CC=CC=C2SC12C([N+](=O)[O-])=CC([N+](=O)[O-])=C[C-]2[N+](=O)[O-]` (centres undefined), 10.2%. The result for `COc1ccccc1OP(C)(=O)Nc1ccccc1Br` (centres undefined) reads 6.63%; that for `Nc1ccc([As](=O)(O)c2ccc(N)cc2)cc1`, 9.24%; that for `CC(C)(C)c1ccc(OP(C)(=O)O)cc1`, 10.4%. Under `CP(=O)(Nc1ccc(Cl)cc1)Oc1ccc(F)cc1` (centres undefined) stands 13.4%; under `O=C(OCCCN1CCCC1)C(O)(c1ccccc1)C1CCCCC1` (centres undefined), -9.77%.

On to `CC(=O)N1C2C3N(C(C)=O)C1C1N(C(C)=O)C(C(N1C(C)=O)N3C(C)=O)N2C(C)=O`, for which the growth inhibition is 2.48%.

Take `CCc1ccc(OP(C)(=O)Nc2cccnc2)cc1` (centres undefined): the growth inhibition was found to be 12%. Consider `O=[N+]([O-])c1cc([N+](=O)[O-])c(CCNc2ccccc2)c([N+](=O)[O-])c1`, for which the growth inhibition was found to be 12.9%. The result for `CCc1nc2c(n1)c1c(non1O)c1c2no[n+]1[O-]` reads 9.74%. The result for `Cc1ccc(NP(=O)(Oc2ccccc2)Oc2ccccc2)nc1` reads 0.154%; that for `COc1ccc(C2=NCC(CBr)S2)cc1` (centres undefined), -12.3%; that for `COc1ccc(OP(C)(=O)Nc2ccc(Br)cc2)cc1` (centres undefined), 4.24%. Under `CCN(CC)CC(O)COC(=O)C(O)(c1ccccc1)C1CCCCC1` (centres undefined) stands 6.51%. As for `O=[N+]([O-])c1cccc(NC2=NCC(CBr)S2)c1` (centres undefined), the growth inhibition is -1.69%. The result for `O=C(O)CNc1ccc([As](=O)(O)O)cc1` reads -0.348%; that for `CC(C)(C)C(=O)NC(Sc1ccncn1)C(Cl)(Cl)Cl` (centres undefined), -5.97%. As to `O=[N+]([O-])c1ncn(CCn2ncnc2[N+](=O)[O-])n1`, the growth inhibition was -1.97%.

Regarding `O=C(Nc1cc([As](=O)(O)O)ccc1O)c1ccccc1`, the growth inhibition came out at 1.65%. With `CP(=O)(OC12CC3CC(CC(C3)C1)C2)OC12CC3CC(CC(C3)C1)C2`, the growth inhibition was found to be 6.77%. Under `Nc1ccc2c(ccc3cccnc32)n1.O=[N+]([O-])c1cc([N+](=O)[O-])c(O)c([N+](=O)[O-])c1` stands -0.266%; under `O=P1(N(CCCl)CCCl)OCCCS1` (centres undefined), 11.7%; under `CCN(N=Nc1nonc1N)c1nonc1N`, 10.2%. The result for `CP(=O)(Nc1ccc(Cl)cc1Cl)Oc1ccccc1` (centres undefined) reads 1.54%; that for `COc1ccccc1OP(C)(=O)Nc1ccc(C)c(C)c1` (centres undefined), 4.26%.

Regarding `Cc1ccc(NP(=O)(Oc2ccccc2F)Oc2ccccc2F)nc1`, the growth inhibition is -0.485%.

As for `Cc1cc(SC(NC(=O)c2ccc(F)cc2)C(Cl)(Cl)Cl)ncn1` (centres undefined), the growth inhibition turned out to be 11.8%. The result for `CCOP(=O)(Nc1ccccc1)OCC` reads 7.07%; that for `CC(C)=NN=C(N)N[N+](=O)[O-]`, 0.771%; that for `CCN(CC)CC(C)C(C)OC(=O)C(O)(c1ccccc1)c1ccccc1` (centres undefined), 4.01%. Under `CCCC1OP(N)(=O)OCC1CC` (centres undefined) stands 8.43%; under `CC(=O)Nc1ccc([As](=O)(O)O)cc1`, -8.33%. Under `O=C(O)c1ccccc1[As](=O)(O)O` stands 3.23%; under `O=P(Nc1nc2ccc(Cl)cc2s1)(c1ccccc1)c1ccccc1`, 0.0124%.

For `Cc1cc(C)cc(OP(C)(=O)Nc2cccc(C(F)(F)F)c2)c1` (centres undefined), the growth inhibition is -7.91%.

Turning to `O=C1C(O)=C([N+](=O)[O-])C(=O)C(O)=C1[N+](=O)[O-]`, the growth inhibition was 6.59%. Under `COc1ccccc1OP(C)(=O)Nc1ccc(C)cc1C` (centres undefined) stands 2.73%; under `CCc1ccc(OP(C)(=O)O)cc1`, 4.72%. Under `Nc1cc(N)c2nonc2c1[N+](=O)[O-]` stands 9.24%; under `Cc1c(NP(C)(=O)Oc2ccc(C(C)C)cc2)c(=O)n(-c2ccccc2)n1C` (centres undefined), 11.8%. Turning to `O=[N+]([O-])c1cc([N+](=O)[O-])c(Nc2ccccn2)c([N+](=O)[O-])c1`, the growth inhibition stood at 30.4%. The result for `CC(C)CC(=O)NC(Sc1ccc(Cl)cc1)C(Cl)(Cl)Cl` (centres undefined) reads 2.23%; that for `O=C(NC(Sc1ccncn1)C(Cl)(Cl)Cl)c1ccccc1` (centres undefined), 10.2%. The result for `Oc1ccccc1CNc1ccccn1` reads 9.71%. Under `Cc1ccc(OP(=O)(Nc2nccs2)Oc2ccc(C)cc2)cc1` stands 9.95%; under `COc1ccccc1OP(=O)(Nc1ccc(C)cn1)Oc1ccccc1OC`, 1.23%; under `COc1ccc(OP(C)(=O)Nc2ccccn2)cc1` (centres undefined), -0.774%. `CN1CCCC(OC(=O)C(c2ccccc2)c2ccccc2)C1` (centres undefined): the growth inhibition came to 7.16%. The result for `CN(C)CCOC(=O)C(O)(c1ccccc1)C1CCCC1` (centres undefined) reads 7.89%; that for `Clc1ccc(Cl)c(NC2=NCC(CBr)S2)c1` (centres undefined), -1.97%; that for `NC(=O)c1cc([N+](=O)[O-])cc([N+](=O)[O-])c1N`, 4.6%.

For `COc1ccccc1OP(C)(=O)Nc1ccc(Br)cc1` (centres undefined), the growth inhibition came to 15.9%. Take `CC(=O)Nc1ccc(Oc2c([N+](=O)[O-])cc([N+](=O)[O-])cc2[N+](=O)[O-])cc1`: the growth inhibition was 1.54%. As for `CC(=O)Nc1ccc([As](=O)(O)O)c(O)c1`, the growth inhibition was 8.02%. The result for `O=C(OC1CN2CCC1CC2)c1ccc([N+](=O)[O-])cc1` (centres undefined) reads 8.76%; that for `CC(=O)c1ccc(N2CC2c2ccncc2)cc1` (centres undefined), 2.75%; that for `O=C(OCCN1CCN(CCOCc2ccccc2)CC1)C(O)(c1ccccc1)c1ccccc1`, 1.5%.

In the case of `Cc1ccccc1CN(C)C(=O)COC(=O)C(O)(c1ccccc1)c1ccccc1`, the growth inhibition was -7.71%. Under `CP(=O)(Nc1ccccc1F)Oc1ccccc1` (centres undefined) stands 7.9%; under `CCc1cc(O)c([N+](=O)[O-])c(C)c1[N+](=O)[O-]`, 9.82%; under `CC(C)(C)C(=O)NC(Sc1ccccc1)C(Cl)(Cl)Cl` (centres undefined), 4.16%. With `CN(C(=O)Cc1ccccc1)C1CC[C@]2(CCCO2)CC1N1CCCC1` (some centres undefined), the growth inhibition turned out to be 13.3%.

Consider `CCOc1ccc(C2=NCC(CBr)S2)cc1` (centres undefined), for which the growth inhibition was -3.71%. The result for `O=P1(Nc2nc3ccc(Cl)cc3s2)COc2ccccc2O1` (centres undefined) reads 9.21%; that for `CP(=O)(Nc1ccccc1)Oc1ccc(F)cc1` (centres undefined), 15.8%. The result for `O=[N+]([O-])c1cc([N+](=O)[O-])c(OC2CCCCC2O)c([N+](=O)[O-])c1` (centres undefined) reads -7.76%. For `O=c1c2cc([N+](=O)[O-])ccc2[nH]c2c([N+](=O)[O-])cc([N+](=O)[O-])cc12`, the growth inhibition was found to be 30%. Under `CN(C)C(=O)Oc1noc2ccccc12` stands 13.4%; under `CC(NC(=O)COC(=O)C(O)(c1ccccc1)c1ccccc1)c1ccccc1` (centres undefined), 9.48%. The result for `Cc1ccccc1OP(=O)(Nc1ccccn1)Oc1ccccc1C` reads 3.49%.

With `CC(=O)NC(SC(=S)N(CC(C)C)CC(C)C)C(Cl)(Cl)Cl` (centres undefined), the growth inhibition was found to be 1.87%. The result for `Cc1ccc(OP(=O)(Nc2ccccn2)Oc2ccc(C)cc2)cc1` reads 0.49%; that for `COC(=O)c1cc2c(s1)N=C(c1ccccc1)N(C)P2(=O)N1CCOCC1` (centres undefined), -6.76%; that for `Cc1c([N+](=O)[O-])cc([N+](=O)[O-])c(Br)c1[N+](=O)[O-]`, 5.2%. As for `CCC(=O)N1C2C3N(C(=O)CC)C1C1N(C(=O)CC)C(C(N1C(=O)CC)N3C(=O)CC)N2C(=O)CC`, the growth inhibition was found to be 7.37%.

On to `CC1OP(=O)(Oc2ccccc2)CC2OC12` (centres undefined), for which the growth inhibition came to 5.36%. Under `CCN(CC)CCCOC(=O)C(O)(c1ccccc1)C1CCCCC1` (centres undefined) stands 5.67%; under `O=C(OC1CN2CCC1CC2)c1ccccc1` (centres undefined), -6.33%. Under `CCOC(=O)c1ccc(NP(C)(=O)Oc2ccc(F)cc2)cc1` (centres undefined) stands 9.71%. Under `O=P1(N(CCCl)CCCl)OCCC2CCCCN21` (centres undefined) stands 4.28%; under `COc1ccc(OP(C)(=O)Nc2ccc(SC(F)(F)F)cc2)cc1` (centres undefined), 5.04%; under `O=C(NC1CCS(=O)(=O)C1)NP(=S)(Oc1ccccc1)Oc1ccccc1` (centres undefined), 0.645%. `Cc1ccc(NP(=O)(Oc2cccc(C)c2)Oc2cccc(C)c2)nc1`: the growth inhibition is -3.47%. Under `c1ccc(-c2nn[nH]n2)c(-c2nn[nH]n2)c1` stands 10.5%; under `Nc1ccc([As](=O)(O)c2ccc([N+](=O)[O-])cc2)cc1`, 25.9%; under `Cc1c(C(c2ccc3c(c2)OCO3)c2c(C)n(C)n(-c3ccccc3)c2=O)c(=O)n(-c2ccccc2)n1C.O=[N+]([O-])c1cc([N+](=O)[O-])c(O)c([N+](=O)[O-])c1`, 6.17%. On to `O=[N+]([O-])c1ccc(O)c(C=NNc2ccc([N+](=O)[O-])cc2[N+](=O)[O-])c1`, for which the growth inhibition amounted to 14.4%. The result for `O=C(OC1CN2CCC1CC2)c1cccc(Cl)c1` (centres undefined) reads 4.06%; that for `O=[N+]([O-])c1ccc(OP2(=O)COCCO2)cc1` (centres undefined), 0.65%; that for `CC(=O)NC(SC(=S)N(C)C)C(Cl)(Cl)Cl` (centres undefined), 42.1%. The result for `O=[N+]([O-])c1ncn(CCn2cnc([N+](=O)[O-])n2)n1` reads 9.87%. Under `CN(C(=O)Cc1ccc(Cl)c(Cl)c1)C1CC[C@@]2(CCCO2)CC1N1CCCC1` (some centres undefined) stands 2.16%; under `Cc1cc(-c2cccc3ccccc23)c(C)cn1.O=[N+]([O-])c1cc([N+](=O)[O-])c(O)c([N+](=O)[O-])c1`, -1.7%. In the case of `O=[N+]([O-])c1cc([N+](=O)[O-])c(NCC2CCS(=O)(=O)C2)c([N+](=O)[O-])c1` (centres undefined), the growth inhibition was -0.329%. As to `O=[As](O)(c1ccccc1)c1ccc(O)cc1`, the growth inhibition came to 32.5%.

Turning to `O=P(Nc1nc2ccccc2s1)(c1ccccc1)c1ccccc1`, the growth inhibition turned out to be 2.11%. Consider `CCN(C(=NP(=O)(N1CCOCC1)N1CCOCC1)N1CCOCC1)c1ccc(OC)cc1`, for which the growth inhibition was found to be 3.22%. As to `COc1ccc(NP(C)(=O)Oc2ccccc2OC)cc1` (centres undefined), the growth inhibition was -1.54%. Take `COc1ccc(N)c([N+](=O)[O-])c1[N+](=O)[O-]`: the growth inhibition was -3.56%. Under `CC(C)C=NN=C(N)N[N+](=O)[O-]` stands 7.38%; under `COc1ccc(OP(C)(=O)Nc2cccc(Br)c2)cc1` (centres undefined), 11.1%. `CN(C)C1(CNC(=O)c2ccc(Cl)c(S(N)(=O)=O)c2)CCCCC1`: the growth inhibition stood at 4.14%. The result for `O=P(Nc1ccccn1)(c1ccc(Br)cc1)c1ccc(Br)cc1` reads 4.43%; that for `C=CCN1CCN(CCOC(=O)C(O)(c2ccccc2)c2ccccc2)CC1`, 1.47%. As for `CCOP(C)(=S)SCC(=O)NC(C)(CC)C(=O)O` (centres undefined), the growth inhibition is -0.751%. The result for `CP(=O)(Nc1ccc(SC(F)(F)F)cc1)Oc1ccc(F)cc1` (centres undefined) reads 10.2%; that for `CCNC(=S)N=C(N)N[N+](=O)[O-]`, -1.48%; that for `O=P(Nc1nccs1)(c1ccccc1)c1ccccc1`, -11.7%. The result for `CC(C)C(=O)NC(Sc1ccccc1)C(Cl)(Cl)Cl` (centres undefined) reads -3.05%. The result for `CC1(CBr)Cn2c(nc3ccccc3c2=O)S1` (centres undefined) reads 1.14%; that for `O=[As](O)(c1ccccc1Br)c1ccccc1Br`, 1.15%.

The values above are taken from PubChem BioAssay AID1159583 (ICCB-Longwood Screening Facility, Harvard Medical School, 2016).
